Test results as given in patent US20040225108 (published 2004).
[ ]: non-standard residue; d: D form. The star is where a group is joined. Boc = CC(C)(C)OC(=O)*; Acm = CC(=O)NC*

Experiment: general procedure: solution-phase peptide synthesis; DCCI/HOBt
Settings: 2TFA (linear octapeptides XVI, XIX)

For “Boc-(D)-Phe-Cys(Acm)-Phe-(D)-Trp-Lys(Boc)-Thr-Cys(Acm)-Thr-OL”, the step yield (coupling step) was 88%.
“Boc-(D)-Phe-Cys(Acm)-Phe-(D)-Trp-Lys(Boc)-Thr-Cys(Acm)-Thr-OMe” gave a step yield (coupling step) of 79%.
Work on Boc-[dF]C(Acm)F[dW]K(Boc)T-OH yielded a step yield (late stage modification step) of 97%.
For Boc-[dF]C(Acm)F[dW]K(Boc)T-OMe, the step yield (coupling step) was 76.3%.
“H-(D)-Phe-Cys(Acm)-Phe-(D)-Trp-Lys-Thr-Cys(Acm)-Thr-OL. 2TFA” showed a step yield (late stage modification step, run 1) of 80% and a step yield (late stage modification step, run 2) of 69%.
Substance “H-(D)-Phe-Cys(Acm)-Phe-(D)-Trp-Lys-Thr-Cys(Acm)-Thr-OMe. 2TFA” has a step yield (late stage modification step) of 91%.
octreotide showed an oxidative folding yield (oxidative folding step, on linear octapeptide XVI) of 84%.
